Test results as given in article PMC9765454.
These are yes or no findings as the source states them, for the method shown. In cells and extracts the contact can be indirect. Some entries that bind do so weakly or less than the wild type.

Target: T1, SOCS1 (suppressor of cytokine signaling 1), endogenous in BMDC (mouse (endogenous in BMDC)) (UniProt O35716)
T1 sequence: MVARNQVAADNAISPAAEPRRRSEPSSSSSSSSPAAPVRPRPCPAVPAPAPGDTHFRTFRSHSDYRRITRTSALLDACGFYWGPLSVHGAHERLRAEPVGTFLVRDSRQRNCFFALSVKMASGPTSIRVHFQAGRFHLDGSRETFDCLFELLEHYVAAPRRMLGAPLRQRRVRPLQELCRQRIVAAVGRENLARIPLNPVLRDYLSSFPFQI
Assay: co-IP; endogenous; whole-cell lysates of BMDC stimulated with STAg for the indicated times; anti-SOCS1 overnight, then protein A/G agarose beads for 4 h; washed 5 times with low-salt lysis buffer (50 mM HEPES, 150 mM NaCl, 1 mM EDTA, 10% glycerol, 1.5 mM MgCl2, 1% Triton X-100); immunoblot

B1: IRF3 (interferon regulatory factor 3), endogenous in BMDC (protein, UniProt P70671 1-419)
chain: METPKPRILPWLVSQLDLGQLEGVAWLDESRTRFRIPWKHGLRQDAQMADFGIFQAWAEASGAYTPGKDKPDVSTWKRNFRSALNRKEVLRLAADNSKDPYDPHKVYEFVTPGARDFVHLGASPDTNGKSSLPHSQENLPKLFDGLILGPLKDEGSSDLAIVSDPSQQLPSPNVNNFLNPAPQENPLKQLLAEEQWEFEVTAFYRGRQVFQQTLFCPGGLRLVGSTADMTLPWQPVTLPDPEGFLTDKLVKEYVGQVLKGLGNGLALWQAGQCLWAQRLGHSHAFWALGEELLPDSGRGPDGEVHKDKDGAVFDLRPFVADLIAFMEGSGHSPRYTLWFCMGEMWPQDQPWVKRLVMVKVVPTCLKELLEMAREGGASSLKTVDLHISNSQPISLTSDQYKAYLQDLVEDMDFQATGNI
binding: binds
